Measured values from US5449752A (Seikagaku Kogyo K.K., priority 1991, dated 1995).
Strings that start with PEPTIDE1 are HELM notation: dots part the residues, brackets hold end groups and non-standard residues.

Test: general procedure: Fmoc solid-phase peptide synthesis; DMBHA resin; DIPCDI-HOBt
Settings: whole synthesis, calculated based on the protecting group-protected polypeptide (1) resin, scale 0.2 mmole

“PEPTIDE1{R.R.W.C.Y.R.K.C.Y.K.G.Y.C.Y.R.K.C.R.[am]}$PEPTIDE1,PEPTIDE1,4:R3-17:R3|PEPTIDE1,PEPTIDE1,8:R3-13:R3$$$V2.0” gave an isolated yield of 27%.
